Earlier results in US20240180869A1, “TREATMENT OF MULTIPLE SCLEROSIS USING PKC ACTIVATORS” (SYNAPTOGENIX, INC., priority 2021, published 2024).
At least one compound was matched to its structure with a doubt left.

Tested on: PKC in K562 cells

C=C(C)[C@@]12C[C@@H](COC(=O)c3ccccc3)[C@@]34OC5(O[C@@H]1[C@@H]3[C@@H]1O[C@]1(CO)[C@@H](O)[C@@]1(O)[C@H]4[C@H]([C@H](C)[C@@H]1OC(=O)c1ccccc1)[C@H](C)CCCCCC[C@H]5O)O2 [Gnidimacrin]
concentration acting as PKC activator: 0.3 nM
